From article PMC5216755 come the findings set out here.

Results are given in words; binding and its absence hold for the method and conditions named. Binding seen in cells or lysates may run through a third protein. Some results given as binding are weak or reduced against the parent protein; the word gives no strength.

Assay [1] addresses FLAG/HA epitope-tagged PPP3CA constitutively active mutant (F/H-PPP3CA*), stably expressed in Jurkat cells (human) (UniProt Q08209). In words: co-IP; F/H-PPP3CA*-expressing or mock-transduced Jurkat cells; IP anti-FLAG; immunoblot of endogenous partners.
Assay [2] has as its target PPP3CA (endogenous, Jurkat T-ALL cells) (human (endogenous in Jurkat)) (UniProt Q08209). In words: co-IP; endogenous PPP3CA immunoprecipitated from Jurkat lysates (RIPA lysis, diluted 1:3 with CO-IP buffer) with a mouse antibody against PPP3CA or irrelevant mouse Ig; basal conditions and after 1 h ionomycin, cyclosporin A or vehicle; immunoblot of endogenous partners. On the technique in general: In western blotting, separated proteins are transferred to a membrane and probed.

B1: Rb (endogenous, Jurkat) (protein, UniProt P06400 1-928)
chain: MPPKTPRKTAATAAAAAAEPPAPPPPPPPEEDPEQDSGPEDLPLVRLEFEETEEPDFTALCQKLKIPDHVRERAWLTWEKVSSVDGVLGGYIQKKKELWGICIFIAAVDLDEMSFTFTELQKNIEISVHKFFNLLKEIDTSTKVDNAMSRLLKKYDVLFALFSKLERTCELIYLTQPSSSISTEINSALVLKVSWITFLLAKGEVLQMEDDLVISFQLMLCVLDYFIKLSPPMLLKEPYKTAVIPINGSPRTPRRGQNRSARIAKQLENDTRIIEVLCKEHECNIDEVKNVYFKNFIPFMNSLGLVTSNGLPEVENLSKRYEEIYLKNKDLDARLFLDHDKTLQTDSIDSFETQRTPRKSNLDEEVNVIPPHTPVRTVMNTIQQLMMILNSASDQPSENLISYFNNCTVNPKESILKRVKDIGYIFKEKFAKAVGQGCVEIGSQRYKLGVRLYYRVMESMLKSEEERLSIQNFSKLLNDNIFHMSLLACALEVVMATYSRSTSQNLDSGTDLSFPWILNVLNLKAFDFYKVIESFIKAEGNLTREMIKHLERCEHRIMESLAWLSDSPLFDLIKQSKDREGPTDHLESACPLNLPLQNNHTAADMYLSPVRSPKKKGSTTRVNSTANAETQATSAFQTQKPLKSTSLSLFYKKVYRLAYLRLNTLCERLLSEHPELEHIIWTLFQHTLQNEYELMRDRHLDQIMMCSMYGICKVKNIDLKFKIIVTAYKDLPHAVQETFKRVLIKEEEYDSIIVFYNSVFMQRLKTNILQYASTRPPTLSPIPHIPRSPYKFPSSPLRIPGGNIYISPLKSPYKISEGLPTPTKMTPRSRILVSIGESFGTSEKFQKINQMVCNSDRVLKRSAEGSNPPKPLKKLRFDIEGSDEADGSKHLPGESKFQQKLAEMTSTRTRMQKQKMNDSMDTSNKEEK
Regarding B1, the binding result in assay [1] and in assay [2] was “binds” each time.
